These results are taken from publication doi:10.1101/2023.09.14.557376.

Sequences of proteins named here, by UniProt entry; tags and fusion partners are left off.
UniProt O08900: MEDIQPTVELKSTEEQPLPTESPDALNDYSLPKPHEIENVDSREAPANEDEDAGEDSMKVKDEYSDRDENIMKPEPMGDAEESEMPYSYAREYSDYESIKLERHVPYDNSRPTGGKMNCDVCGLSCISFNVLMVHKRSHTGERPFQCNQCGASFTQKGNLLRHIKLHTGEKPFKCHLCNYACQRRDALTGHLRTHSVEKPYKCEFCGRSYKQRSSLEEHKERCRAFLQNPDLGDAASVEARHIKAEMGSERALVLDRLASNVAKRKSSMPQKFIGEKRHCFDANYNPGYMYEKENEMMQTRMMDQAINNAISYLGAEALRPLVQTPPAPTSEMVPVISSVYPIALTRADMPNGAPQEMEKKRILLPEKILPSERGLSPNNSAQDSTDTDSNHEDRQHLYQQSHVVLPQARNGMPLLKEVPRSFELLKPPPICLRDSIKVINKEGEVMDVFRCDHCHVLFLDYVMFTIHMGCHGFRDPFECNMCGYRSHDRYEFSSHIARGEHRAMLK
UniProt Q03267: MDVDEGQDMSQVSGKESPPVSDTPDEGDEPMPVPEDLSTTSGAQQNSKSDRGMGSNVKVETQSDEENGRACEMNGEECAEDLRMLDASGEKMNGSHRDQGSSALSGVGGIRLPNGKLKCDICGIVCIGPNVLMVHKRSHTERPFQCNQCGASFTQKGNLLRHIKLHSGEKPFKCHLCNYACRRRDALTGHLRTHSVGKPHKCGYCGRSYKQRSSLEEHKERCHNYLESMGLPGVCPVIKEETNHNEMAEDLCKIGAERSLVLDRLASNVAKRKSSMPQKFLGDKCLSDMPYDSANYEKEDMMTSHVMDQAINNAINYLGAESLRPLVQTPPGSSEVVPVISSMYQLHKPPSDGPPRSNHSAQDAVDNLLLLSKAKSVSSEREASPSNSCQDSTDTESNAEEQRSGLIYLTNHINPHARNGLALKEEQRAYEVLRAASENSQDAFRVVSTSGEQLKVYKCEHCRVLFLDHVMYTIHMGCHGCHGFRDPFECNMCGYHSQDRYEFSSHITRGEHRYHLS

Holding throughout (assay): affinity purification with mass spectrometry
Assay [1] concerns the target T1, biotinylated IRF4 (IRF4-Avi-tag fusion protein, interferon regulatory factor 4) (mouse) (UniProt Q64287).
T1 sequence (chain, biotin on the Avi-tag (BirA-mediated in vivo biotinylation)): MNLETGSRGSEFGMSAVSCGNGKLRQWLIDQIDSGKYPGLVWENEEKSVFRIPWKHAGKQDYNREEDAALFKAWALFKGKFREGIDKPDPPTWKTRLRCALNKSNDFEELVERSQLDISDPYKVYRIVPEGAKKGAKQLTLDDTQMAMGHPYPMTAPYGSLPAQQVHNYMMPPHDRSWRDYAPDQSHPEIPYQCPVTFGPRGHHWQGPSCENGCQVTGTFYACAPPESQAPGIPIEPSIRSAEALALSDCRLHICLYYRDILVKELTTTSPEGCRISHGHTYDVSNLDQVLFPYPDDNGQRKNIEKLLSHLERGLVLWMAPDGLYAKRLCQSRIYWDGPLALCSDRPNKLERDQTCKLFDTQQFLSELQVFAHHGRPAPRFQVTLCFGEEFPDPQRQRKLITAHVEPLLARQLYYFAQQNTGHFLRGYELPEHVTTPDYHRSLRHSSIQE

Assay [2] concerns the target T1, biotinylated IRF4 (IRF4-Avi-tag fusion protein, interferon regulatory factor 4) (mouse). The source holds these as a separate data set.
Assay [3] addresses T2, biotinylated IRF4 (IRF4-Avi-tag fusion protein, interferon regulatory factor 4) (mouse), Q64287.
T2 chain: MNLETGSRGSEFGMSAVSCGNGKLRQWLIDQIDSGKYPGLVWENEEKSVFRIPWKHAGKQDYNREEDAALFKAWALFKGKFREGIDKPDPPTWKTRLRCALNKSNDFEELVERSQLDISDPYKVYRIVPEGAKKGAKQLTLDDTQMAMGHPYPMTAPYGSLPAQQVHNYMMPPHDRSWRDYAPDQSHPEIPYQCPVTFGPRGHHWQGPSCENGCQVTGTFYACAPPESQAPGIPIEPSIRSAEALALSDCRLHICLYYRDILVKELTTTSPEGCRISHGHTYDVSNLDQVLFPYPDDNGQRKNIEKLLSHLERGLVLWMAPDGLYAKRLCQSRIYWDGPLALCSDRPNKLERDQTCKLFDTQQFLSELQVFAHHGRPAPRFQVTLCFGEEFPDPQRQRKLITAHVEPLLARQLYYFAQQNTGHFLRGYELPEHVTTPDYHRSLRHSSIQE
To be noted: remark: other sources report otherwise.

Read-outs that look alike come from different tables or passages of the source. These are yes or no findings as the source states them, for the method shown. In cells and extracts the contact can be indirect. A yes stands for co-enrichment or nearness to the bait. Other partners may have been found. Where a sequence is shown, tags or fusion partners need not be part of it.

As for Aiolos (from UniProt O08900 1-507), the binding result in assay [1] and in assay [2] was “binds” in each case. For the molecule Ikaros (from UniProt Q03267 1-517), the binding entry in assay [1] and in assay [2] was “binds” each time.

B1: FOXP3, Q99JB6 1-417 (protein)
chain: MPNPRPAKPMAPSLALGPSPGVLPSWKTAPKGSELLGTRGSGGPFQGRDLRSGAHTSSSLNPLPPSQLQLPTVPLVMVAPSGARLGPSPHLQALLQDRPHFMHQLSTVDAHAQTPVLQVRPLDNPAMISLPPPSAATGVFSLKARPGLPPGINVASLEWVSREPALLCTFPRSGTPRKDSNLLAAPQGSYPLLANGVCKWPGCEKVFEEPEEFLKHCQADHLLDEKGKAQCLLQREVVQSLEQQLELEKEKLGAMQAHLAGKMALAKAPSVASMDKSSCCIVATSTQGSVLPAWSAPREAPDGGLFAVRRHLWGSHGNSSFPEFFHNMDYFKYHNMRPPFTYATLIRWAILEAPERQRTLNEIYHWFTRMFAYFRNHPATWKNAIRHNLSLHKCFVRVESEKGAVWTVDEFEFRKKR
modifications: here or on the partner: biotin on the Avi-tag (BirA-mediated in vivo biotinylation)
Turning to B1, the binding entry in assay [3] is “binds”.
